Measurements taken from article PMC10229228, “Structural insights into a regulatory mechanism of FIR RRM1–FUSE interaction”.
No constants are given. Whether binding was seen depends on the method and setting.

Chains of the proteins cited; added tags and fusions are not shown. Lines headed by an entry give the natural chain unless they say otherwise; changes in a name come on top. Residues count along the entry.
UniProt Q9UHX1, residues 118-310: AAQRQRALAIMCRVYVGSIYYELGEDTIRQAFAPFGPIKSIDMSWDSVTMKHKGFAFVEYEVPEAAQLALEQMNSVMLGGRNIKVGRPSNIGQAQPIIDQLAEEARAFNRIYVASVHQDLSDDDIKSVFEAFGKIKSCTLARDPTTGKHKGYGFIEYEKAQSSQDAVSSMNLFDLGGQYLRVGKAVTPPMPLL

Target: FUBP-interacting repressor (FIR) RRM1-2 (residues 101-293) (UniProt Q9UHX1)
Assay: crystal structure; FIR RRM1-2 mixed with 15-nt FUSE ssDNA at 1:2 (protein:ssDNA), complex purified by size exclusion, crystallised at 20°C in 25% PEG 3350, 0.2 M sodium acetate, 0.1 M Bis-Tris pH 5.5; space group P212121, two protein molecules in the asymmetric unit; 2.05 Å; both purified

binding: no binding
Substance: FUBP-interacting repressor (FIR) RRM1-2 (residues 101-293) (from UniProt Q9UHX1-2 101-293) (domain or fragment)
